Data as given in PubChem BioAssay AID743121 (NCATS, 2013).
The whole screen tested about 26,000 reagents; below is a part drawn at random. In the full data, 167 (0.63%) got an active call. 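Calls are per gene from RSA p-values that are not deposited; an individual active-marked siRNA can sensitise only weakly.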 Reagents against one gene are numbered here. Further read-outs or replicates are left out here. No sequences are given here.

- Purpose: 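Knock-downs that sensitise breast cancer cells to camptothecin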 (primary screen)
- Cell system: MDA-MB-231 cells, a human breast cancer line
- Reagents: single siRNA against human genes, 20 nM siRNA (0.8 pmol per well)
- Timing: 120 h (drug added 48 h after transfection, read 72 h later)
- Conditions: camptothecin 20 nM (about EC30) for 72 h; vehicle 0.1% DMSO in parallel plates
- Measurement: 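CellTiter-Glo ATP signal, scaled to control siRNA as percent viability; sensitisation given as log2 of untreated divided by camptothecin-treated viability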
- Scale: log2 vehicle/camptothecin viability: higher = stronger sensitisation to camptothecin
- Rule for the call: 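Active genes have an RSA gene-level p-value below 0.001, computed from the ratios of their separate siRNAs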

gene	reagent no.	log2 vehicle/camptothecin viability	Outcome
NOTCH4	1	0.107	inactive
NOTCH4	2	-0.288	inactive
NOTCH4	3	-0.327	inactive
CYP1A2	1	-0.0641	inactive
CYP1A2	2	-0.0252	inactive
CYP1A2	3	-0.32	inactive
CYP1A2	4	-0.309	inactive
RPA2	1	-0.334	inactive
RPA2	2	-0.184	inactive
RPA2	3	-0.178	inactive
RPA2	4	0.527	inactive

Part of the list above in another layout.
{"gene": "CYP1A2", "reagent no.": 1, "log2 vehicle/camptothecin viability": -0.0641, "Outcome": "inactive"}
{"gene": "CYP1A2", "reagent no.": 2, "log2 vehicle/camptothecin viability": -0.0252, "Outcome": "inactive"}
{"gene": "CYP1A2", "reagent no.": 3, "log2 vehicle/camptothecin viability": -0.32, "Outcome": "inactive"}
{"gene": "CYP1A2", "reagent no.": 4, "log2 vehicle/camptothecin viability": -0.309, "Outcome": "inactive"}

Continued:
gene	reagent no.	log2 vehicle/camptothecin viability	Outcome
MINDY2	1	0.329	inactive
MINDY2	2	0.416	inactive
MINDY2	3	-0.464	inactive
MINDY2	4	-0.469	inactive
NRXN3	1	-0.24	inactive
NRXN3	2	-0.0822	inactive
NRXN3	3	0.207	inactive
SMC3	1	-0.0436	inactive
SMC3	2	-0.237	inactive
SMC3	3	-0.00366	inactive
SMC3	4	-0.14	inactive
ADIPOR2	1	0.142	inactive
ADIPOR2	2	0.194	inactive
ADIPOR2	3	-0.15	inactive
ADIPOR2	4	-0.173	inactive
MPP3	1	-0.181	inactive
MPP3	2	-0.286	inactive
MPP3	3	-0.141	inactive
MPP3	4	-0.0143	inactive
